Source: PubChem BioAssay AID504808 (Drosophila RNAi Screening Center, 2011)
In all, the deposit lists about 21,000 reagents; shown is an unselected part of those with a known target gene and a result. Of all reagents, 18 (0.084%) were called active. 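Raw counts without plate normalisation, one of two replicates; the ratio scores behind the calls were not deposited.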 Entries without a mark were called inactive. Names joined by + are all predicted targets of the reagent. No sequences are given here. Not given: the amount of reagent, the time to read-out.

- Test: 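Chromatin factors that keep E2F targets switched off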 (primary screen)
- Cell system: Drosophila S2 cells
- Reagent: long dsRNA against Drosophila genes
- Detection: 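Dual luciferase plate measurements; E2F-specific signal taken as firefly over Renilla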
- Direction: E2F firefly: higher = more E2F reporter activity; Renilla normaliser: higher = more normaliser reporter signal
- Hit rule: 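a knock-down counted as active when the firefly/Renilla E2F signal rose above 50%, a threshold chosen arbitrarily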

Gene | PubChem SID | E2F firefly, rep 1 | Renilla normaliser, rep 1
Pa1 (PTIP associated 1) | SID104199214 | 1.13e5 | 5628
Mlp84B (Muscle LIM protein at 84B) | SID104192388 | 1.37e5 | 7360
CG14052 | SID104197699 | 63381 | 3254
CG14052 | SID104197984 | 1.33e5 | 6082
bbx + waw | SID104200367 | 1.52e5 | 5335
bbx + waw | SID104200381 | 1.38e5 | 6933
SKIP (Shal K[+] channel interacting protein) | SID104194505 | 1.29e5 | 7442
SKIP (Shal K[+] channel interacting protein) | SID104194506 | 1.45e5 | 7489
SKIP (Shal K[+] channel interacting protein) | SID104195656 | 1.36e5 | 7608
SKIP (Shal K[+] channel interacting protein) | SID104195987 | 76111 | 3570
SKIP (Shal K[+] channel interacting protein) | SID104195988 | 1.41e5 | 7249
Prp31 (Pre-mRNA processing factor 31) | SID104190527 | 74622 | 3617
yip2 (yippee interacting protein 2) | SID104183432 | 1.49e5 | 5637
CG34203 | SID104183647 | 1.13e5 | 3979
Cys (Cystatin-like) | SID104196429 | 1.14e5 | 6247
fsd (fates-shifted) | SID104185958 | 1.14e5 | 4959
Men (Malic enzyme) | SID104192716 | 75141 | 2522
Men (Malic enzyme) | SID104196530 | 1.31e5 | 6089
CG42246 | SID104197312 | 85068 | 2719
CG33290 | SID104191285 | 95440 | 3853
Dlc90F (Dynein light chain 90F) | SID104196441 | 70906 | 4304
CG10920 | SID104197557 | 45001 | 2945
betaTry (betaTrypsin) | SID104187374 | 1.04e5 | 5020
ctp (cut up) | SID104198550 | 9055 | 828
kek4 (kekkon 4) | SID104183012 | 88410 | 3502
cort (cortex) | SID104181940 | 49469 | 3087
CG31473 | SID104195235 | 1.37e5 | 7144
Alp5 (Alkaline phosphatase 5) | SID104194061 | 62458 | 3361
CG10663 | SID104189562 | 1.12e5 | 5643
CG6462 | SID104190433 | 86236 | 3373
Rai1 (Rat1 Interacting Protein 1) | SID104199949 | 1.54e5 | 6558
pelo (pelota) | SID104183380 | 85706 | 3571
Dip-C (Dipeptidase C) | SID104195647 | 67348 | 3306
CG14658 | SID104192036 | 1.08e5 | 5947
CG3434 | SID104190157 | 69047 | 3682
Obp56b (Odorant-binding protein 56b) | SID104186343 | 1.38e5 | 4865
PH4alphaNE2 (prolyl-4-hydroxylase-alpha NE2) | SID104196336 | 1.37e5 | 7810
agt (O-6-alkylguanine-DNA alkyltransferase) | SID104192403 | 1.43e5 | 6983
CG13722 | SID104188123 | 90280 | 3734
tko (technical knockout) | SID104198636 | 99443 | 4769
pch2 (pachytene checkpoint 2) | SID104194160 | 1.51e5 | 7483
CG5439 | SID104182653 | 75176 | 3267
Tim17a2 | SID104192044 | 1.22e5 | 4996
Ote (Otefin) | SID104187290 | 70839 | 3456
CG12998 | SID104199310 | 1.44e5 | 5681
Ste:CG33238 + Ste:CG33241 + Ste:CG33236 + 11 more | SID104198796 | 85118 | 2286
Ste:CG33238 + Ste:CG33241 + Ste:CG33236 + 11 more | SID104201052 | 1.43e5 | 6574
BobA | SID104189681 | 1.48e5 | 6699
Sbf (SET domain binding factor) | SID104196644 | 66502 | 3488
Prp8 (pre-mRNA processing factor 8) | SID104187085 | 2031 | 189
CG17036 | SID104182356 | 97288 | 3808
CG11068 | SID104199161 | 1.44e5 | 6136
ATPsynbeta (ATP synthase, beta subunit) | SID104196986 | 59607 | 4432
CG6739 | SID104182779 | 1.47e5 | 4675
RpL29 (Ribosomal protein L29) | SID104184442 | 1.09e5 | 4455
dpr5 (defective proboscis extension response 5) | SID104195558 | 1.43e5 | 6424
Nse1 (Non-SMC element 1) | SID104181939 | 1.08e5 | 4384
CROT (Carnitine O-octanoyltransferase) | SID104194310 | 1601 | 856
CROT (Carnitine O-octanoyltransferase) | SID104194311 | 1.23e5 | 6587
CG4278 | SID104182533 | 74153 | 3289
CG15890 | SID104199529 | 1.51e5 | 5998
CG9568 | SID104183057 | 1.44e5 | 5458
CG12682 | SID104197665 | 1.04e5 | 5300
CG11529 | SID104189631 | 1.15e5 | 7292
SCAR | SID104183218 | 1.36e5 | 5004
Eo (Ecdysone oxidase) | SID104199979 | 2.04e5 | 6414
CG15673 | SID104184055 | 99855 | 4559
blo (bloated) | SID104185729 | 2892 | 252
Gen (XPG-like endonuclease) | SID104189471 | 74211 | 3294
ND-24 (NADH dehydrogenase (ubiquinone) 24 kDa subunit) | SID104199752 | 1.59e5 | 5638
Strip (Striatin interacting protein) | SID104187986 | 83996 | 3398
NFAT (NFAT nuclear factor) | SID104198783 | 81329 | 2379
NFAT (NFAT nuclear factor) | SID104199185 | 1.07e5 | 4954
COX7AL2 (Cytochrome c oxidase subunit 7A-like 2) | SID104179891 | 1.30e5 | 5064
Est-Q (Esterase Q) | SID104191627 | 75663 | 3523
SK (small conductance calcium-activated potassium channel) | SID104197179 | 75923 | 2358
SK (small conductance calcium-activated potassium channel) | SID104197543 | 86849 | 6673
SK (small conductance calcium-activated potassium channel) | SID104197679 | 56227 | 4362
SK (small conductance calcium-activated potassium channel) | SID104197680 | 47639 | 3784
SK (small conductance calcium-activated potassium channel) | SID104198145 | 7970 | 776
RhoGEF64C (Rho guanine nucleotide exchange factor at 64C) | SID104188110 | 70057 | 3503
RhoGEF64C (Rho guanine nucleotide exchange factor at 64C) | SID104188111 | 99075 | 4075
ATPCL (ATP citrate lyase) | SID104185705 | 1.64e5 | 5783
CG4701 | SID104181744 | 86365 | 4541

Taken from above:
Entry for SKIP (Shal K[+] channel interacting protein) [SID104195988] under “E2F firefly, rep 1”: 1.41e5
Result for yip2 (yippee interacting protein 2) [SID104183432] in “E2F firefly, rep 1”: 1.49e5
Value for pch2 (pachytene checkpoint 2) [SID104194160] in “E2F firefly, rep 1”: 1.51e5
Men (Malic enzyme) [SID104192716], Renilla normaliser, rep 1: 2522
